For this experiment, the target named is T1, O8E (B7-H4) in normal mouse tissue (mouse) (UniProt Q7TSP5).
T1 sequence (looked up): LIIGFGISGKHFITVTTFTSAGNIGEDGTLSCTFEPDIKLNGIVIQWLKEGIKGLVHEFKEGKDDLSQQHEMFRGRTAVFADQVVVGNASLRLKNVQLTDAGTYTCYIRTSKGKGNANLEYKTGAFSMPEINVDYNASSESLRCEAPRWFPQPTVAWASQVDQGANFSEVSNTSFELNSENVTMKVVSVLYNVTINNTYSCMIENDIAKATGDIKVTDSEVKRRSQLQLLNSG
Kind of experiment: immunohistochemistry on a normal mouse tissue array.

These are yes or no findings as the source states them, for the method shown. Some binding calls cover weakened binding; strength is not graded here.

B1: 1G11 human monoclonal antibody (anti-O8E / anti-B7-H4) (antibody, V domains shown)
VH: QVQLQQWGAGLLKPSETLSLTCAVYGGSFSDYFWTWIRQPPGKGLEWIGEINHSGTTNYNPSLKSRVTISADTSKNQFSLRLSSVTAADTAVYYCARLSSWSNWAFEYWGQGTLVTVSS
VL: EIVLTQFPGTLSLSPGERATLSCRASQSVSSTYLAWYQQKPGQAPRVLIYGASRRATGIPDRFSGSGSGTDFTLTISRLEPEDFAVYYCQQYGSSPLTFGGGTKVEIK
As to B1, the binding result was “binds”.

The values are drawn from US20110085970A1.
